In the supplement of paper PMC4604168 (melanoma cell lines):
Some of the results follow. Repeats are few or missing, and single values can be far off.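 Cells were imaged in 1,536-well plates, and nuclei stained with an antibody against cleaved PARP were counted against all DNA-stained nuclei to give the apoptosis fraction. Screening doses were chosen to leave most cells alive, and resting and induced cleaved-PARP levels differ strongly between cell lines.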

Columns and labels:
Test in all cases: cleaved PARP positive nuclei fraction relative to DMSO control; melanoma cells; higher = more apoptosis
Settings in all cases: library dose: low library concentration; 72 h
501Mel = test system: 501Mel
A101D = test system: A101D
A2058 = test system: A2058
A375 = test system: A375
C32 = test system: C32
CBRC008 = test system: CBRC008 (line from a melanoma biopsy)
CBRC013 = test system: CBRC013 (line from a melanoma biopsy)
CBRC014 = test system: CBRC014 (line from a melanoma biopsy)
CBRC016 = test system: CBRC016 (line from a melanoma biopsy)
CBRC017 = test system: CBRC017 (line from a melanoma biopsy)
COLO792 = test system: COLO792
COLO800 = test system: COLO800
COLO829 = test system: COLO829
G361 = test system: G361
IPC-298 = test system: IPC-298
IST-MEL1 = test system: IST-MEL1
LB2518-MEL = test system: LB2518-MEL
LOXIMVI = test system: LOXIMVI
MEL-HO = test system: MEL-HO

SMILES	cleaved PARP positive nuclei fraction (501Mel) [%]	cleaved PARP positive nuclei fraction (A101D) [%]	cleaved PARP positive nuclei fraction (A2058) [%]	cleaved PARP positive nuclei fraction (A375) [%]	cleaved PARP positive nuclei fraction (C32) [%]	cleaved PARP positive nuclei fraction (CBRC008) [%]	cleaved PARP positive nuclei fraction (CBRC013) [%]	cleaved PARP positive nuclei fraction (CBRC014) [%]	cleaved PARP positive nuclei fraction (CBRC016) [%]	cleaved PARP positive nuclei fraction (CBRC017) [%]	cleaved PARP positive nuclei fraction (COLO792) [%]	cleaved PARP positive nuclei fraction (COLO800) [%]	cleaved PARP positive nuclei fraction (COLO829) [%]	cleaved PARP positive nuclei fraction (G361) [%]	cleaved PARP positive nuclei fraction (IPC-298) [%]	cleaved PARP positive nuclei fraction (IST-MEL1) [%]	cleaved PARP positive nuclei fraction (LB2518-MEL) [%]	cleaved PARP positive nuclei fraction (LOXIMVI) [%]	cleaved PARP positive nuclei fraction (MEL-HO) [%]
Clc1ccc(Nc2nnc(Cc3ccncc3)c3ccccc23)cc1 [vatalanib] + O=C(Nc1cccc(Cl)c1)Nc1ncc(CCNc2ncnc3ccsc23)s1 [SNS314] (first compound 2 µM, partner dose 0.0008 µM)	76.9	22.3	193	326	76.3	206	130	116	125	90.1	148	63.9	120	155	192	68.5	40.3	53.2	153
O=C(Nc1cccc(Cl)c1)Nc1ncc(CCNc2ncnc3ccsc23)s1 + Cn1cncc1[C@@](N)(c1ccc(Cl)cc1)c1ccc2c(c1)c(-c1cccc(Cl)c1)cc(=O)n2C [tipifarnib] (first compound 0.0008 µM, partner dose 0.01 µM)	79.2	89.4	142	201	87.8	292	127	91.1	87.7	102	127	120	97.2	189	91.8	111	83.2	74.3	67.2
Nc1cccc2c1CN(C1CCC(=O)NC1=O)C2=O (stereo not drawn) [lenalidomide] + C[C@@H]1CCN(C(=O)CC#N)C[C@@H]1N(C)c1ncnc2[nH]ccc12 [CP690550] (first compound 1 µM, partner dose 1 µM)	80.8	152	171	60.2	213	169	127	89.9	99.6	199	38.4	26.6	115	116	87.3	96.1	305	34	31.5
Cn1nnc2c(C(N)=O)ncn2c1=O [temozolomide] + C[C@@H]1CCN(C(=O)CC#N)C[C@@H]1N(C)c1ncnc2[nH]ccc12 [CP690550] (first compound 2 µM, partner dose 1 µM)	161	83.1	69.2	108	163	111	107	95.6	60.4	78.5	148	84.2	110	94.7	47.7	51.8	138	169	132
COCC[n+]1c2c(n(Cc3cnccn3)c1C)C(=O)c1ccccc1C2=O + CO[C@@H]1[C@H](N(C)C(=O)c2ccccc2)C[C@H]2O[C@]1(C)n1c3ccccc3c3c4c(c5c6ccccc6n2c5c31)C(=O)NC4 [Midostaurin] (first compound 0.0004 µM, partner dose 0.08 µM)	86.6	49.9	524	244	138	458	107	95.7	83.9	73.3	209	236	112	107	116	44.1	194	201	78.1
C=CCNC1=C2C[C@@H](C)C[C@H](OC)[C@H](O)[C@@H](C)/C=C(\C)[C@H](OC(N)=O)[C@@H](OC)/C=C\C=C(/C)C(=O)NC(=CC1=O)C2=O [Tanespimycin] + O=C(O)c1ccc(-c2c[nH]c3ncc(-c4ccccc4)cc23)cc1C1CCCC1 [GSK650394] (first compound 0.002 µM, partner dose 0.16 µM)	80.6	130	138	84.9	58.8	581	118	155	133	136	103	39.1	117	59.4	130	166	87.6	69	71.1
Cn1c(Nc2ccc(C(F)(F)F)cc2)nc2cc(Oc3ccnc(-c4ncc(C(F)(F)F)[nH]4)c3)ccc21 + CO[C@@H]1[C@H](N(C)C(=O)c2ccccc2)C[C@H]2O[C@]1(C)n1c3ccccc3c3c4c(c5c6ccccc6n2c5c31)C(=O)NC4 [Midostaurin] (first compound 0.08 µM, partner dose 0.08 µM)	130	190	140	254	177	75.8	89.9	77.8	189	194	581	73.8	87.3	153	108	113	88.9	196	262
CC(=O)c1c(C)c2cnc(Nc3ccc(N4CCNCC4)cn3)nc2n(C2CCCC2)c1=O [palbociclib] + CN(C)S(=O)(=O)c1ccc2c(c1)/C(=C/c1cc3c([nH]1)CCCC3)C(=O)N2 [SU6656] (first compound 0.04 µM, partner dose 0.4 µM)	204	313	121	87.7	122	135	91	134	99.1	112	172	129	186	101	168	115	113	53.1	265
C#Cc1cccc(Nc2ncnc3cc(OCCOC)c(OCCOC)cc23)c1 [erlotinib] + CC(C)(C)c1cnc(CSc2cnc(NC(=O)C3CCNCC3)s2)o1 [SNS-032] (first compound 0.8 µM, partner dose 0.01 µM)	70.9	80.9	132	62.7	67.1	80.6	141	146	74	74.5	147	133	60.9	74.9	89.5	195	230	63	129
C#Cc1cccc(Nc2ncnc3cc(OCCOC)c(OCCOC)cc23)c1 [erlotinib] + COc1cc(Nc2ncc(F)c(Nc3ccc4c(n3)NC(=O)C(C)(C)O4)n2)cc(OC)c1OC [Tamatinib] (first compound 0.8 µM, partner dose 0.4 µM)	90.5	44.9	194	107	120	555	168	111	69.8	167	136	98	121	63	27.5	106	99.4	119	69.4
Cc1ccc(NC(=O)c2cccc(N(C)C)c2)cc1NC(=O)c1ccc(O)cc1 + NC(=O)Nc1cc(-c2cccc(F)c2)sc1C(=O)N[C@H]1CCCNC1 [AZD7762] (first compound 2 µM, partner dose 0.02 µM)	96.2	312	102	341	83.9	54.1	89.5	132	207	109	87.8	106	33.6	76.6	102	88.3	90.6	19.1	128
COCC[n+]1c2c(n(Cc3cnccn3)c1C)C(=O)c1ccccc1C2=O + CN(NC(=O)CC(=O)NN(C)C(=S)c1ccccc1)C(=S)c1ccccc1 [STA4783] (first compound 0.0004 µM, partner dose 0.006 µM)	705	46.2	731	6780	309	1240	130	367	362	268	269	257	416	193	112	28.5	234	40.3	185
CC(=O)c1c(C)c2cnc(Nc3ccc(N4CCNCC4)cn3)nc2n(C2CCCC2)c1=O [palbociclib] + CO[C@@H]1[C@H](N(C)C(=O)c2ccccc2)C[C@H]2O[C@]1(C)n1c3ccccc3c3c4c(c5c6ccccc6n2c5c31)C(=O)NC4 [Midostaurin] (first compound 0.04 µM, partner dose 0.08 µM)	191	104	75.5	598	171	45.2	131	120	92.2	91.4	110	79.8	144	37.1	143	226	60.8	163	122
C=CCn1c(=O)c2cnc(Nc3ccc(N4CCN(C)CC4)cc3)nc2n1-c1cccc(C(C)(C)O)n1 + COc1cc2c(Oc3ccc4[nH]c(C)cc4c3F)ncnc2cc1OCCCN1CCCC1 [cediranib] (first compound 0.02 µM, partner dose 0.4 µM)	85.6	110	147	67.4	165	47.7	97.2	134	41.8	184	171	29.5	61.6	100	97.2	29.8	113	105	144
COCC[n+]1c2c(n(Cc3cnccn3)c1C)C(=O)c1ccccc1C2=O + O=C(O)c1ccc(-c2c[nH]c3ncc(-c4ccccc4)cc23)cc1C1CCCC1 [GSK650394] (first compound 0.0004 µM, partner dose 0.16 µM)	131	47.5	66.7	224	20.7	599	91.3	331	162	135	92	38.2	159	96.1	205	931	124	170	144
C#Cc1cccc(Nc2ncnc3cc(OCCOC)c(OCCOC)cc23)c1 [erlotinib] + CN(NC(=O)CC(=O)NN(C)C(=S)c1ccccc1)C(=S)c1ccccc1 [STA4783] (first compound 0.8 µM, partner dose 0.006 µM)	385	210	108	1970	76.4	736	174	567	128	185	352	184	343	114	91.2	38.6	168	72.3	429
OCc1c[nH]c2ccccc12 [Indole-3-carbinol] + C=CCn1c(=O)c2cnc(Nc3ccc(N4CCN(C)CC4)cc3)nc2n1-c1cccc(C(C)(C)O)n1 [MK1775] (first compound 0.8 µM, partner dose 0.02 µM)	85.4	55.4	84.9	177	97.8	87.5	65	75	149	71.6	46.6	130	39.6	111	89.9	61.2	133	119	64.5

As a short view, part of the list above.
SMILES	cleaved PARP positive nuclei fraction (501Mel) [%]	cleaved PARP positive nuclei fraction (A101D) [%]	cleaved PARP positive nuclei fraction (A2058) [%]	cleaved PARP positive nuclei fraction (A375) [%]	cleaved PARP positive nuclei fraction (C32) [%]	cleaved PARP positive nuclei fraction (CBRC008) [%]	cleaved PARP positive nuclei fraction (CBRC013) [%]	cleaved PARP positive nuclei fraction (CBRC014) [%]	cleaved PARP positive nuclei fraction (CBRC016) [%]	cleaved PARP positive nuclei fraction (CBRC017) [%]	cleaved PARP positive nuclei fraction (COLO792) [%]	cleaved PARP positive nuclei fraction (COLO800) [%]	cleaved PARP positive nuclei fraction (COLO829) [%]	cleaved PARP positive nuclei fraction (G361) [%]	cleaved PARP positive nuclei fraction (IPC-298) [%]	cleaved PARP positive nuclei fraction (IST-MEL1) [%]	cleaved PARP positive nuclei fraction (LB2518-MEL) [%]	cleaved PARP positive nuclei fraction (LOXIMVI) [%]	cleaved PARP positive nuclei fraction (MEL-HO) [%]
CC(=O)c1c(C)c2cnc(Nc3ccc(N4CCNCC4)cn3)nc2n(C2CCCC2)c1=O [palbociclib] + CO[C@@H]1[C@H](N(C)C(=O)c2ccccc2)C[C@H]2O[C@]1(C)n1c3ccccc3c3c4c(c5c6ccccc6n2c5c31)C(=O)NC4 [Midostaurin] (first compound 0.04 µM, partner dose 0.08 µM)	191	104	75.5	598	171	45.2	131	120	92.2	91.4	110	79.8	144	37.1	143	226	60.8	163	122
C=CCn1c(=O)c2cnc(Nc3ccc(N4CCN(C)CC4)cc3)nc2n1-c1cccc(C(C)(C)O)n1 + COc1cc2c(Oc3ccc4[nH]c(C)cc4c3F)ncnc2cc1OCCCN1CCCC1 [cediranib] (first compound 0.02 µM, partner dose 0.4 µM)	85.6	110	147	67.4	165	47.7	97.2	134	41.8	184	171	29.5	61.6	100	97.2	29.8	113	105	144
